{"sequences": {"note": "Sequences of proteins named here, by UniProt entry; tags and fusion partners are left off. Residues count along the entry.", "UniProt H0VZC5, 1-426": "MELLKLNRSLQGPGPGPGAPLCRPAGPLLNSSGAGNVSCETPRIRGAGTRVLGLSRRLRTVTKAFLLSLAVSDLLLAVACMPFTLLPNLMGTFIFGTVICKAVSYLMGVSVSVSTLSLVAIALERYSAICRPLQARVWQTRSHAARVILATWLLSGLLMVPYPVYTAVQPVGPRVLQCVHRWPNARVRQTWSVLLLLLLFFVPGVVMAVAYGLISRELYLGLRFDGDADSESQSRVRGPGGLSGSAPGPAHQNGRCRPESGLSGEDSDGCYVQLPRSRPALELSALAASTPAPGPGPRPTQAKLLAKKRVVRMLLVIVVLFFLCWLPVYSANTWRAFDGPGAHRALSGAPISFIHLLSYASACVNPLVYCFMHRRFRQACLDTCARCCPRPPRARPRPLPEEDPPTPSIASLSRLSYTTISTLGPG"}, "source": "patent US20070123718A1", "about": "“Novel 4-amino-2(5H)-furanones” (Aston University, priority 2003, published 2007)", "target": "CCKB receptor (guinea pig cerebral cortex) (Cavia porcellus, UniProt H0VZC5)", "assay": "125I-CCK-8 receptor binding assay, CCKB", "settings": "read-out: Activity CCK-B [μM] (IC50); Table 2; guinea pig cerebral cortex membranes", "protocol": "CCKA and CCKB receptor binding assays were performed, by using guinea pig cerebral cortex (CCKB) or rat pancreas (CCKA). Male guinea pig brain tissues were prepared according to the modified method described by Saita et al, [(1994), Characterization of YM022: its CCKB/gastrin receptor binding profile and antagonism to CCK-8-induced Ca2+mobilization., Eur. J. Pharmacol.,269, 249-254]. Pancreatic membranes were prepared in a similar way but by Charpentier et al, [(1988), Cyclic cholecystokinin analogues with high selectivity for central receptors., Proc Natl Acad Sci USA, 85, 1968-1972]. The […] CCK binding assay: Tissues were homogenized in ice cold sucrose (0.32 M, 25 ml) for 15 strokes at 500 rpm and centrifuged at 13000 rpm for 10 mins. The supernatant was re-centrifuged at 13000 rpm for 20 mins. The resulting pellet was re-dispersed to the required volume of buffer at 500 rpm and stored in aliquots at […].\nBinding was achieved using a radioligand ^125I-Bolton-Hunter labeled CCK, NEN at 25 pM. The samples were incubated {with membranes (0.1 mg/ml) } in 20 mM Hepes, 1 mM EGTA, 5 mM MgCl2, 150 mm NaCl, 0.25 mg/ml bacitracin at pH 6.5 for 2 hrs at RT and then […] by centrifugation at 1100 rpm for 5 minutes. The membrane pellets were washed twice with water and the bound radioactivity was measured in a Packard Cobra Auto-gamma counter (B5005). All binding assays were carried out with L-363, 260 as an internal non-specific standard. Controls (no compound) were also added. All samples were made in duplicate and repeated twice. All compounds were initially screened for percentage inhibition at 20 μm. Samples showing an average inhibition of <35% were diluted to 2 μm and re-screened and if active diluted again.", "note": "The match of structure and compound is tentative.", "data": [{"smiles": "COC1OC(=O)C(Cl)=C1NCCc1ccccc1", "note": "(centres unmarked)", "values": [{"measurement": "IC50", "result": 0.9, "unit": "µM"}]}, {"smiles": "COC1OC(=O)C(Cl)=C1N1CCN(Cc2ccccc2)CC1", "note": "(centres unmarked) [Example A8B16]", "values": [{"measurement": "IC50", "result": 14, "unit": "µM"}]}, {"smiles": "CCCCCCCCCCCCCCCCOC1OC(=O)C(Cl)=C1NCc1ccccc1Cl", "note": "(centres unmarked)", "values": [{"measurement": "IC50", "result": 0.24, "unit": "µM"}]}, {"smiles": "COC1OC(=O)C(Cl)=C1N1CC(C)OC(C)C1", "note": "(centres unmarked)", "values": [{"measurement": "IC50", "result": 15, "unit": "µM"}]}, {"smiles": "CC(C)OC1OC(=O)C(Cl)=C1N1CCN(Cc2ccccc2)CC1", "note": "(centres unmarked)", "values": [{"measurement": "IC50", "result": "> 20", "unit": "µM"}]}, {"smiles": "CCCCCCCCCCCCCCCCOC1OC(=O)C(Cl)=C1N1CCN(Cc2ccccc2)CC1", "note": "(centres unmarked)", "values": [{"measurement": "IC50", "result": 13.9, "unit": "µM"}]}, {"smiles": "CC1CCC(C(C)C)C(OC2OC(=O)C(Cl)=C2N2CC(C)OC(C)C2)C1", "note": "(centres unmarked)", "values": [{"measurement": "IC50", "result": 10.3, "unit": "µM"}]}, {"smiles": "Cc1c(NC2=C(Cl)C(=O)OC2Cl)c(=O)n(-c2ccccc2)n1C", "note": "(centres unmarked)", "values": [{"measurement": "IC50", "result": "> 20", "unit": "µM"}]}, {"smiles": "COC1OC(=O)C(Cl)=C1NCc1ccccc1", "note": "(centres unmarked)", "values": [{"measurement": "IC50", "result": 1, "unit": "µM"}]}, {"smiles": "O=C1OC(Cl)C(N2CCc3ccccc32)=C1Cl", "note": "(centres unmarked)", "values": [{"measurement": "IC50", "result": "> 20", "unit": "µM"}]}, {"smiles": "C=COC1OC(=O)C(Cl)=C1N1CCc2ccccc21", "note": "(centres unmarked)", "values": [{"measurement": "IC50", "result": 18.5, "unit": "µM"}]}, {"smiles": "C=COC1OC(=O)C(Cl)=C1n1cnc2ccccc21", "note": "(centres unmarked)", "values": [{"measurement": "IC50", "result": "> 20", "unit": "µM"}]}, {"smiles": "CCCCCCCCCCCCCCCCOC1OC(=O)C(Cl)=C1n1cnc2ccccc21", "note": "(centres unmarked)", "values": [{"measurement": "IC50", "result": 1.2, "unit": "µM"}]}, {"smiles": "C#CCOC1OC(=O)C(Cl)=C1N1CCc2ccccc21", "note": "(centres unmarked)", "values": [{"measurement": "IC50", "result": "> 20", "unit": "µM"}]}]}
